Assay results from publication PMC2289219 (The Journal of Cell Biology, 1991).

Test system: Bovine brain ECs
Assay type: cell-based

Structure (SMILES): CN[C@@H]1C[C@H]2O[C@@](C)([C@@H]1OC)n1c3ccccc3c3c4c(c5c6ccccc6n2c5c31)C(=O)NC4 [staurosporine]
- Effect of protein kinase inhibitors on resistance: quite effective in decreasing resistance
